Our source for the step yield values is patent publication US7368424B2 (AiCuris GmbH & Co. KG, priority 2003, dated 2008).

The nature of one data set: peptide synthesis. To be noted: coupling step, trifluoroacetate.
“N-(tert-Butoxycarbonyl)-N-methyl-lysobactin monotrifluoroacetate”: the step yield is reported as 40% of theory. The same measure, in the same setting: to “N-({1-[(tert-Butoxycarbonyl)amino]cyclopropyl}carbonyl)-de(leucyl)lysobactin monotrifluoroacetate” belongs 13% of theory; to “N-Boc-3-tert-butyl-D-alanyl-3-(3-pyridyl)-L-alanyl-de(1-D-leucyl-2-L-leucyl)lysobactin”, 80% of theory; to “N-tert-Butoxycarbonyl-3-tert-butyl-D-alanyl-3-tert-butyl-L-alanyl-de(1-D-leucyl-2-L-leucyl)-lysobactin trifluoroacetate”, 95% of theory.

For the substance “N-{3-[(tert-Butoxycarbonyl)amino]propionyl}-de(leucyl)lysobactin monotrifluoroacetate”, the step yield is listed as 40% of theory. The same measure, in the same setting: to “N-{6-[(tert-Butoxycarbonyl)amino]hexanoyl}-de(leucyl)lysobactin monotrifluoroacetate” belongs 18% of theory; to “{4-[(tert-Butoxycarbonyl)amino]butanoyl}-de(leucyl)lysobactin monotrifluoroacetate”, 59% of theory.

The data set is the same for the next values; noted with them: late stage modification step, trifluoroacetate.
Turning to “3-Amino-N-[(benzyloxy)carbonyl]-L-alanyl-N^1-{(3S,6S,12S,15S,18R,21S,24S,27S,28R)-6-[(1S)-2-amino-1-hydroxy-2-oxoethyl]-18-(3-{[amino(imino)methyl]amino}propyl)-12-[(1S)-1-hydroxyethyl]-3-(hydroxymethyl)-24-[(1R)-1-hydroxy-2-methylpropyl]-21-isobutyl-15-[(1S)-1-methylpropyl]-2,5,8,11,14,17,20,23,26-nonaoxo-28-phenyl-1-oxa-4,7,10,13,16,19,22,25-octaazacyclooctacosan-27-yl}-L-leucinamide bistrifluoroacetate”, the step yield was 65% of theory.

As for “3-tert-Butyl-D-alanyl-3-(3-pyridyl)-L-alanyl-de(1-D-leucyl-2-L-leucyl)lysobactin tristrifluoroacetate”, the step yield is reported as 59% of theory. Still for that read-out and setting: in the case of “3-tert-Butyl-D-alanyl-N^1-{(3S,6S,12S,15S,18R,21S,24S,27S,28R)-6-[(1S)-2-amino-1-hydroxy-2oxoethyl]-18-(3-{[amino(imino)methyl]amino}propyl)-12-[(1S)-1-hydroxyethyl]-3-(hydroxymethyl)-24-[(1R)-1-hydroxy-2-methylpropyl]-21-isobutyl-15-[(1S)-1-methylpropyl]-2,5,8,11,14,17,20,23,26-nonaoxo-28-phenyl-1-oxa-4,7,10,13,16,19,22,25-octaazacyclooctacosan-27-yl}-3-tert-butyl-L-alaninamide bistrifluoroacetate” it was 73% of theory; in that of “L-Leucyl-N^1-{(3S,6S,12S,15S,18R,21S,24S,27S,28R)-6-[(1S)-2-amino-1-hydroxy-2-oxoethyl]-18-(3-{[amino(imino)methyl]amino}propyl)-12-[(1S)-1-hydroxyethyl]-3-(hydroxymethyl)-24-[( 1R)-1-hydroxy-2-methylpropyl]-21-isobutyl-15-[(1S)-1-methylpropyl]-2,5,8,11,14,17,20,23,26-nonaoxo-28-phenyl-1-oxa-4,7,10,13,16,19,22,25-octaazacyclooctacosan-27-yl}-L-leucinamide bistrifluoroacetate”, 42% of theory. Still for that read-out and setting: to “N^2-(3-Aminopropionyl)-N^1-{(3S,6S,12S,15S,18R,21S,24S,27S,28R)-6-[(1S)-2-amino-1-hydroxy-2-oxoethyl]-18-(3-{[amino(imino)methyl]amino}propyl)-12-[(1S)-1-hydroxyethyl]-3-(hydroxymethyl)-24-[(1R)-1-hydroxy-2-methylpropyl]-21-isobutyl-15-[(1S)-1-methylpropyl]-2,5,8,11,14,17,20,23,26-nonaoxo-28-phenyl-1-oxa-4,7,10,13,16,19,22,25-octaazacyclooctacosan-27-yl}-L-leucinamide bistrifluoroacetate” belongs 11% of theory.

For “N^2-(4-Aminobutanoyl)-N^1-{(3S,6S,12S,15S,18R,21S,24S,27S,28R)-6-[(1S)-2-amino-1-hydroxy-2-oxoethyl]-18-(3-{[amino(imino)methyl]amino}propyl)-12-[(1S)-1-hydroxyethyl]-3-(hydroxymethyl)-24-[(1R)-1-hydroxy-2-methylpropyl]-21-isobutyl-15-[(1S)-1-methylpropyl]-2,5,8,11,14,17,20,23,26-nonaoxo-28-phenyl-1-oxa-4,7,10,13,16,19,22,25-octaazacyclooctacosan-27-yl}-L-leucinamide bistrifluoroacetate”, the step yield is 35% of theory.

With “N^2-({1-Aminocyclopropyl}carbonyl)-N^1-{(3S,6S,12S,15S,18R,21S,24S,27S,28R)-6-[(1S)-2-amino-1-hydroxy-2-oxoethyl]-18-(3-{[amino(imino)methyl]amino}propyl)-12-[(1S)-1-hydroxyethyl]-3-(hydroxymethyl)-24-[(1R)-1-hydroxy-2-methylpropyl]-21-isobutyl-15-[(1S)-1-methylpropyl]-2,5,8,11,14,17,20,23,26-nonaoxo-28-phenyl-1-oxa-4,7,10,13,16,19,22,25-octaazacyclooctacosan-27-yl}-L-leucinamide bistrifluoroacetate”, the step yield is on record as 50% of theory.

Staying with this data set, now noted: late stage modification step, trifluoroacetate; run 1.
Take “De(1-D-leucyl-2-L-leucyl)lysobactin bistrifluoroacetate”: the step yield is 75% of theory.

Still in this data set, the particulars now being: late stage modification step, trifluoroacetate; run 2.
As to “De(1-D-leucyl-2-L-leucyl)lysobactin bistrifluoroacetate”, the step yield was 32% of theory.
